{"source": "paper PMC6818353", "binders": {"B1": {"name": "Myc- or Flag-tagged CCDC124 expressed in HEK293T cells (protein, UniProt Q96CT7 1-223)", "chain": "MPKKFQGENTKSAAARARRAEAKAAADAKKQKELEDAYWKDDDKHVMRKEQRKEEKEKRRLDQLERKKETQRLLEEEDSKLKGGKAPRVATSSKVTRAQIEDTLRRDHQLREAPDTAEKAKSHLEVPLEENVNRRVLEEGSVEARTIEDAIAVLSVAEEAADRHPERRMRAAFTAFEEAQLPRLKQENPNMRLSQLKQLLKKEWLRSPDNPMNQRAVPFNAPK"}, "B2": {"name": "Myc- or Flag-tagged RYBP expressed in HEK293T cells (protein, UniProt Q8N488 1-228)", "chain": "MTMGDKKSPTRPKRQAKPAADEGFWDCSVCTFRNSAEAFKCSICDVRKGTSTRKPRINSQLVAQQVAQQYATPPPPKKEKKEKVEKQDKEKPEKDKEISPSVTKKNTNKKTKPKSDILKDPPSEANSIQSANATTKTSETNHTSRPRLKNVDRSTAQQLAVTVGNVTVIITDFKEKTRSSSTSSSTVTSSAGSEQQNQSSSGSESTDKGSSRSSTPKGDMSAVNDESF"}, "B3": {"name": "Myc- or Flag-tagged ING2 expressed in HEK293T cells (protein, UniProt Q9H160 1-280)", "chain": "MLGQQQQQLYSSAALLTGERSRLLTCYVQDYLECVESLPHDMQRNVSVLRELDNKYQETLKEIDDVYEKYKKEDDLNQKKRLQQLLQRALINSQELGDEKIQIVTQMLELVENRARQMELHSQCFQDPAESERASDKAKMDSSQPERSSRRPRRQRTSESRDLCHMANGIEDCDDQPPKEKKSKSAKKKKRSKAKQEREASPVEFAIDPNEPTYCLCNQVSYGEMIGCDNEQCPIEWFHFSCVSLTYKPKGKWYCPKCRGDNEKTMDKSTEKTKKDRRSR"}, "B4": {"name": "coiled-coil domain containing 124 (CCDC124), ribosome-displayed ORF (protein, UniProt Q96CT7 1-223)", "chain": "B1 chain"}, "B5": {"name": "RING1 and YY1 binding protein (RYBP), ribosome-displayed ORF (protein, UniProt Q8N488 1-228)", "chain": "B2 chain"}, "B6": {"name": "inhibitor growth of protein 2 (ING2), ribosome-displayed ORF (protein, UniProt Q9H160 1-280)", "chain": "B3 chain"}, "B7": {"name": "C11orf46, ribosome-displayed ORF (protein, UniProt Q8N8R7 1-260)", "chain": "MMDPCSVGVQLRTTNECHKTYYTRHTGFKTLQELSSNDMLLLQLRTGMTLSGNNTICFHHVKIYIDRFEDLQKSCCDPFNIHKKLAKKNLHVIDLDDATFLSAKFGRQLVPGWKLCPKCTQIINGSVDVDTEDRQKRKPESDGRTAKALRSLQFTNPGRQTEFAPETGKREKRRLTKNATAGSDRQVIPAKSKVYDSQGLLIFSGMDLCDCLDEDCLGCFYACPACGSTKCGAECRCDRKWLYEQIEIEGGEIIHNKHAG"}}, "note": "These are yes or no findings as the source states them, for the method shown. A result given as binding can be weak or reduced; the word gives no strength. For some of these results: Binding seen in cells or lysates may run through a third protein. For some of these results: Tags and fused reporters may be left off the sequences shown.", "data": [{"target": "V5-His6-tagged Zika virus NS5 protein (Zika virus (PRVABC59 strain))", "test": "co-IP", "values": [{"binder": "B1", "binding": "binds"}, {"binder": "B2", "binding": "binds"}, {"binder": "B3", "binding": "binds"}]}, {"target": "V5-His6-tagged Zika virus NS5 protein (Zika virus (PRVABC59 strain))", "test": "PLATO-BC (ribosome display of the barcoded human ORFeome, affinity enrichment, barcode sequencing)", "values": [{"binder": "B4", "binding": "binds"}, {"binder": "B5", "binding": "binds"}, {"binder": "B6", "binding": "binds"}, {"binder": "B7", "binding": "binds"}]}]}
